In experiment [1] the target is T1, Dcp-1::V5::TurboID (C-terminally V5::TurboID knocked-in Dcp-1) (Drosophila (endogenous knock-in in larval imaginal discs)) (UniProt O02002).
T1 sequence: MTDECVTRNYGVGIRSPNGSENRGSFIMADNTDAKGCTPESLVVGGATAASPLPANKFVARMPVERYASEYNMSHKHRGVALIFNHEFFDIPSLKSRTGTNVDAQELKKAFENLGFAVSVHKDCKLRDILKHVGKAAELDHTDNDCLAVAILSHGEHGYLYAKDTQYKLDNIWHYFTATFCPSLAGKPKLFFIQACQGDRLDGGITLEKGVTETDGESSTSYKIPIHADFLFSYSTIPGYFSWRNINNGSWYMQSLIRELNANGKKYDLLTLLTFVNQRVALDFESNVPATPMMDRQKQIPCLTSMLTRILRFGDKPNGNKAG
The experiment can be described thus: proximity labelling.

Sequences of proteins named here, by UniProt entry; tags and fusion partners are left off.
UniProt Q26365: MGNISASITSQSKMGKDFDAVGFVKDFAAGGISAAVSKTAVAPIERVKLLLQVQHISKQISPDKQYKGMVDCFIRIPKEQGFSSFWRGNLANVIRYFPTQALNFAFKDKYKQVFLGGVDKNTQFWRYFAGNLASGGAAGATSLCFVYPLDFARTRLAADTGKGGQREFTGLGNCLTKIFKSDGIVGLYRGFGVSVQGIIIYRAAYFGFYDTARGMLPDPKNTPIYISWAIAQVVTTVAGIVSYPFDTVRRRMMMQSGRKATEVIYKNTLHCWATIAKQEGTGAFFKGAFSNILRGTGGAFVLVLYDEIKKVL

For experiment [2], the target named is T1, Dcp-1::V5::TurboID (C-terminally V5::TurboID knocked-in Dcp-1) (Drosophila (endogenous knock-in in larval imaginal discs)). The experiment can be described thus: proximity labelling. This is another data set of the same source.

Like-named read-outs stand apart in the source and are kept apart here. Results are given in words; binding and its absence hold for the method and conditions named. In cells and extracts the contact can be indirect. A yes stands for co-enrichment or nearness to the bait. Other partners may have been found. For some of these results: A no says only that the protein was not detected with the bait. Tags and fused reporters may be left off the sequences shown.

Take SesB (from UniProt Q26365 1-312): the binding entry in experiment [1] is “binds”.

B1: Sirtuin 1 (Sirt1) (enzyme, UniProt Q9VK34 1-823)
chain: MMENYEEIRLGHIRSKDLGNQVPDTTQFYPPTKFDFGAEILASTSTEAEAEAEATATTTEPATSELAGKANGEIKTKTLAAREEQEIGANLEHKTKNPTKSMGEDEDDEEEEEEDDEEEEEDDEEGITGTSNEDEDSSSNCSSSVEPDWKLRWLQREFYTGRVPRQVIASIMPHFATGLAGDTDDSVLWDYLAHLLNEPKRRNKLASVNTFDDVISLVKKSQKIIVLTGAGVSVSCGIPDFRSTNGIYARLAHDFPDLPDPQAMFDINYFKRDPRPFYKFAREIYPGEFQPSPCHRFIKMLETKGKLLRNYTQNIDTLERVAGIQRVIECHGSFSTASCTKCRFKCNADALRADIFAQRIPVCPQCQPNKEQSVDASVAVTEEELRQLVENGIMKPDIVFFGEGLPDEYHTVMATDKDVCDLLIVIGSSLKVRPVAHIPSSIPATVPQILINREQLHHLKFDVELLGDSDVIINQICHRLSDNDDCWRQLCCDESVLTESKELMPPEHSNHHLHHHLLHHRHCSSESERQSQLDTDTQSIKSNSSADYILGSAGTCSDSGFESSTFSCGKRSTAAEAAAIERIKTDILVELNETTALSCDRLGLEGPQTTVESYRHLSIDSSKDSGIEQCDNEATPSYVRPSNLVQETKTVAPSLTPIPQQRGKRQTAAERLQPGTFYSHTNNYSYVFPGAQVFWDNDYSDDDDEEEERSHNRHSDLFGNVGHNYKDDDEDACDLNAVPLSPLLPPSLEAHIVTDIVNGSNEPLPNSSPGQKRTACIIEQQPTPAIETEIPPLKKRRPSEENKQQTQIERSEESPPPGQLAAV
modifications: biotinylated by TurboID (sites not given)
As to B1, the binding entry in experiment [2] was “binds”.

B2: Fkbp59 (protein, UniProt Q9VL78 1-439)
chain: MPEGNKIDLSGDGGVLKEILKEGTGTETPHSGCTVSLHYTGRLVDGTEFDSSLSRNEPFEFSLGKGNVIKAFDMGVATMKLGERCFLTCAPNYAYGAAGSPPAIPPDATLIFELEMLGWKGEDLSPNQDGSIDRTILEASDKKRTPSDGAFVKAHISGSFEGRVFEDRDVEFDYGEGKAIGIIDGVEIALEKMNVGETSRIKIQAKYAFGAKGNEEFKIPPNATVEYTVKLVDCGKGLEEWKLSDEERLAEAKVYKEKGTNYFKKENWALAIKMYTKCKNILPTTVHTNEEVKKIKVATHSNIALCHQKSNDHFEAKQECNEVLALDKNNVKALYRRGQCNLTINELEDALEDFQKVIQLEPGNKAAANQVIICKQKLKESKNKEKKLYANMFTKLAANDKETEPPRETDVLSKCGEWSEEDAKREAELTLERDNIIMI
modifications: biotinylated by TurboID (sites not given)
As to B2, the binding result in experiment [2] was “binds”.

B3: DIAP-1 (protein, UniProt Q24306 1-438)
chain: MASVVADLPSYGPIAFDQVDNNTNATQLFKNNINKTRMNDLNREETRLKTFTDWPLDWLDKRQLAQTGMYFTHAGDKVKCFFCGVEIGCWEQEDQPVPEHQRWSPNCPLLRRRTTNNVPINAEALDRILPPISYDICGANDSTLEMREHAYAEGVIPMSQLIQSIGMNAVNAAGSVTGTAAPQPRVTVATHASTATQATGDVQPETCRPSAASGNYFPQYPEYAIETARLRTFEAWPRNLKQKPHQLAEAGFFYTGVGDRVRCFSCGGGLMDWNDNDEPWEQHALWLSQCRFVKLMKGQLYIDTVAAKPVLAEEKEESSSIGGVAVASTQASEEEQQTSLSSEEAVSGDVAPSVAPTAATRIFNKIVEATAVATPSTNSSGSTSIPEEKLCKICYGAEYNTAFLPCGHVVACAKCASSVTKCPLCRKPFTDVMRVYFS
Regarding B3, the binding result in experiment [2] is on record as “no binding”.

These data come from paper doi:10.1101/2025.08.24.672027.
